Values from PubChem BioAssay AID686937 (Drosophila RNAi Screening Center, 2013)
The deposit covers about 23,000 reagents; shown is an unselected part of those that have a named target and a result. 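Reduced-secretion tags in replicate 1 do not always agree with the z-scores; no criterion for assigning the tags was given.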 Names joined by + are all predicted targets of the reagent. The record does not give: the amount of reagent.

- Purpose: 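Knock-downs that reduce output of a secreted reporter enzyme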 (primary screen)
- System: Drosophila S2 cells expressing secreted horseradish peroxidase
- Knock-down reagent: long dsRNA against Drosophila genes
- Duration: about 5.5 days (5 days dsRNA, then 12 h reporter induction)
- Challenge: reporter expression induced after 5 days of dsRNA, read 12 h later; inducer not stated
- Detection: 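Chemiluminescent measurement of peroxidase in the medium 12 h after reporter induction, following 5 days of dsRNA, given as a z-score per plate; higher means more secretion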
- Scale: z-score: higher = more reporter secreted into medium

Gene	dsRNA	z-score, replicate 1	z-score, replicate 2	z-score, replicate 3	z-score, replicate 4	phenotype, replicate 1
CG12496	DRSC18602	0.69	0.57			
hale (hale-bopp)	DRSC10882	0.17	0.14			
Spt-I (Serine palmitoyltransferase subunit I)	DRSC06860	0.11	0.46			
CG7054	DRSC16185	0.17	0.21			
CG17199	DRSC15192	0.22	0.42			
pho (pleiohomeotic)	DRSC17219	0.49	0.42			
CG6429	DRSC06986	0.62	0.28			
Noc1 (Nucleolar complex protein 1)	DRSC10921	0.16	-0.14			
FucTC (alpha1,3-fucosyltransferase C)	DRSC20966	0.59	0.42			
CARPB (Carbonic anhydrase-related protein B)	DRSC18437	0.23	0.61	0.2	-0.86	
CARPB (Carbonic anhydrase-related protein B)	DRSC18438	0.35	0.68			
edin (elevated during infection)	DRSC09488	-0.21	0.33			
RpL7 (Ribosomal protein L7)	DRSC03417	-3.95	-4.75			reduced secretion
Dic1	DRSC14125	0.22	-0.06			
CtsF (Cathepsin F)	DRSC12056	0.49	0.47			
CtsF (Cathepsin F)	DRSC12195	0.56	0.37			
CtsF (Cathepsin F)	DRSC12196	0.49	0.48			
Srg2 (Sting-regulated gene 2)	DRSC10681	0.31	0.23			
temp (tempura)	DRSC18271	0.32	0.17			
lawc (leg arista wing complex)	DRSC22531	1.22	0.85			
iotaTry (iotaTrypsin)	DRSC07634	0.24	0.21			
CG7509	DRSC08596	0.54	0.29			
CG31415	DRSC22409	-0.84	-0.43			
ft (fat)	DRSC00819	0.25	0.25			
CG3631	DRSC15503	0.41	0.51			
CG15873	DRSC04277	0.08	0.1			
CG31910 + snoRNA:Me28S-G2743 (retired record)	DRSC00946	-0.26	0.28			
ara (araucan)	DRSC11322	-1.84	-1.47			reduced secretion
CG14221	DRSC19578	0.35	0.23			
Datp (Diadenosine tetraphosphatase)	DRSC01102	0.61	0.24			
ATbp ((A+T)-stretch binding protein)	DRSC20906	0.62	0.53			
CG13795	DRSC02299	0.27	0.22			
Ekar (Eye-enriched kainate receptor)	DRSC17161	0.24	0.29			
CG2202	DRSC19841	-2.1	0.64	0.41	-1.29	
CG11634	DRSC03700	0.13	0.18			
CG5567	DRSC10517	0.4	0.27			
Ir11a (Ionotropic receptor 11a)	DRSC19699	0.57	0.66			
CG5335	DRSC06931	0.28	0.4			
THG (tRNA-histidine guanylyltransferase)	DRSC01896	-0.08	0.05			
CG7367	DRSC03049	0.56	0.24			
Cyp6a8 (Cytochrome P450 6a8)	DRSC07384	0.38	0.25			
CG1208	DRSC12190	0.5	0.15			
Apl (Apollo)	DRSC10350	0.29	0.09			
CG32119	DRSC09248	0.28	0.53	0.41	0.26	
CG32119	DRSC21462	0.9	0.88			
CG14455	DRSC11712	0.33	0.05			
HDAC1 (Histone deacetylase 1)	DRSC08696	-0.29	-0.12			
ouib (ouija board)	DRSC14376	0.26	0.22			
alien	DRSC03482	-1.22	-0.55			
CG17048	DRSC06649	0.35	0.36			
CG4970	DRSC02796	0.08	0.28			
Pdss2 (Decaprenyl diphosphate synthase subunit 2)	DRSC11625	0.11	0.11			
Sec20 (Secretory 20)	DRSC12295	-1.66	-0.82			reduced secretion
GstO2 (Glutathione S transferase O2)	DRSC10691	0.1	-0.46			
erm (earmuff)	DRSC00700	0.25	0.28			
Nepl11 (Neprilysin-like 11)	DRSC12333	0.04	0.21	-0.02	0.27	
CG8562	DRSC10995	-0.05	0.14			
sip3 (septin interacting protein 3)	DRSC15402	-0.47	-0.07			
CG14111	DRSC10114	0.46	0.34			
CG5746	DRSC15868	0.17	0.37			
128up (upstream of RpIII128)	DRSC05027	0.3	0.28			
Cep290 (Centrosomal protein 290kDa)	DRSC08359	0.29	0.39			
AhcyL1 (Adenosylhomocysteinase like 1)	DRSC08647	0.02	0.08			
Syt1 (Synaptotagmin 1)	DRSC00156	0.21	0.31			
Syt1 (Synaptotagmin 1)	DRSC00157	0.55	0.38	0.43	0.68	
Syt1 (Synaptotagmin 1)	DRSC00158	0.26	0.15			
Syt1 (Synaptotagmin 1)	DRSC00840	0.02	0.22			
Syt1 (Synaptotagmin 1)	DRSC22077	-0.3	0.26			
fbp (fructose-1,6-bisphosphatase)	DRSC02077	0.2	0.24			
CG7322	DRSC20036	0.06	0.5			
CG13540	DRSC04182	0.42	0.47			
Strip (Striatin interacting protein)	DRSC08194	-0.29	-0.56			
CG30048	DRSC22205	-0.21	-0.23			
aop (anterior open)	DRSC00801	-2.04	-1.08			reduced secretion
Gas8 (Growth arrest specific protein 8)	DRSC22884	0.66	0.33			
Ir52b (Ionotropic receptor 52b)	DRSC06263	0.55	0.08			
cv-2 (crossveinless 2)	DRSC03861	-0.32	0.06			
cv-2 (crossveinless 2)	DRSC04261	-0.02	0.07			
CG12057	DRSC17797	0.44	0.29			
Su(H) (Suppressor of Hairless)	DRSC03445	0.79	0.32			
CG1371	DRSC06409	0.37	0.4			
Ir7f (Ionotropic receptor 7f)	DRSC18012	0.24	0.29			
SPE (Spatzle-Processing Enzyme)	DRSC15135	0.2	0.28			
Vps13D (Vacuolar protein sorting 13D)	DRSC09818	-0.56	0.32			
Vps13D (Vacuolar protein sorting 13D)	DRSC09819	-0.48	0.27			
Klp3A (Kinesin-like protein at 3A)	DRSC18676	0.29	0.36			
Klp3A (Kinesin-like protein at 3A)	DRSC21625	-0.59	-0.4			
CG3491	DRSC01934	-1.06	-0.92			
l(3)mbn (lethal (3) malignant blood neoplasm)	DRSC08793	0.27	0.07			
CG9993	DRSC04599	-0.21	0.08			
Tbc1d22 (TBC1 domain family member 22)	DRSC15867	-0.41	-0.08			
mRpL39 (mitochondrial ribosomal protein L39)	DRSC10255	-0.68	-0.22			
CG15263	DRSC01974	0.19	0.06	0.09	0.1	
Shal (Shaker cognate l)	DRSC09625	-1.96	-0.17			reduced secretion
Shal (Shaker cognate l)	DRSC11283	0.09	-0.15			
PGRP-LE (Peptidoglycan recognition protein LE)	DRSC20137	0.28	0.44			
CG14636	DRSC12223	0.27	0.36			
CG10031	DRSC00286	-0.02	0.32			
Had2 (beta Hydroxy acid dehydrogenase 2)	DRSC05971	0.42	0.29			
CG34165	DRSC01970	-2.87	0.35	0.38	-1.81	reduced secretion
CG12012	DRSC08220	0.09	0.2			
slam (slow as molasses)	DRSC03240	0.72	0.21			
uncNacbeta	DRSC00326	0.28	0.29			
Exn (Ephexin)	DRSC09673	-0.16	-0.04			
Exn (Ephexin)	DRSC10077	0.25	0.31			

Records listed so far whose target name begins with F or f:
Gene	dsRNA	z-score, replicate 1	z-score, replicate 2	z-score, replicate 3	z-score, replicate 4	phenotype, replicate 1
FucTC (alpha1,3-fucosyltransferase C)	DRSC20966	0.59	0.42			
ft (fat)	DRSC00819	0.25	0.25			
fbp (fructose-1,6-bisphosphatase)	DRSC02077	0.2	0.24			
